Data: publication PMC5520843
Results are given in words; binding and its absence hold for the method and conditions named. A result given as binding can be weak or reduced; the word gives no strength.

Molecular target: Gal4BD-OsUbc13 (rice (Oryza sativa L. cv. Japonaca))
Assay: two-hybrid; yeast PJ69-4A; Gal4BD-OsUbc13 (pGBT9 derivative) with Gal4AD fusions of Uevs (pGAD424 derivatives); growth by the P_GAL1-HIS3 reporter on minimal medium with up to 5 mM 3-AT; plates incubated for 3 days

binding: binds
B1: Gal4AD-yMms2 (protein, UniProt P53152 1-137)
chain: MSKVPRNFRLLEELEKGEKGFGPESCSYGLADSDDITMTKWNGTILGPPHSNHENRIYSLSIDCGPNYPDSPPKVTFISKINLPCVNPTTGEVQTDFHTLRDWKRAYTMETLLLDLRKEMATPANKKLRQPKEGETF
